In the supplement of paper PMC10849652:
This is one part of the list.

Chains of the proteins cited; added tags and fusions are not shown. Lines headed by an entry give the natural chain unless they say otherwise; changes in a name come on top.
UniProt P10124: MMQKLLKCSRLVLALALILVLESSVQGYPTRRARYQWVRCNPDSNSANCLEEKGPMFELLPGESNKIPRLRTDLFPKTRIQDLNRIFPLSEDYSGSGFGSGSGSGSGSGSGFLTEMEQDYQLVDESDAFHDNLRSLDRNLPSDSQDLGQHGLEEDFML
UniProt Q13586, whole entry, looked up: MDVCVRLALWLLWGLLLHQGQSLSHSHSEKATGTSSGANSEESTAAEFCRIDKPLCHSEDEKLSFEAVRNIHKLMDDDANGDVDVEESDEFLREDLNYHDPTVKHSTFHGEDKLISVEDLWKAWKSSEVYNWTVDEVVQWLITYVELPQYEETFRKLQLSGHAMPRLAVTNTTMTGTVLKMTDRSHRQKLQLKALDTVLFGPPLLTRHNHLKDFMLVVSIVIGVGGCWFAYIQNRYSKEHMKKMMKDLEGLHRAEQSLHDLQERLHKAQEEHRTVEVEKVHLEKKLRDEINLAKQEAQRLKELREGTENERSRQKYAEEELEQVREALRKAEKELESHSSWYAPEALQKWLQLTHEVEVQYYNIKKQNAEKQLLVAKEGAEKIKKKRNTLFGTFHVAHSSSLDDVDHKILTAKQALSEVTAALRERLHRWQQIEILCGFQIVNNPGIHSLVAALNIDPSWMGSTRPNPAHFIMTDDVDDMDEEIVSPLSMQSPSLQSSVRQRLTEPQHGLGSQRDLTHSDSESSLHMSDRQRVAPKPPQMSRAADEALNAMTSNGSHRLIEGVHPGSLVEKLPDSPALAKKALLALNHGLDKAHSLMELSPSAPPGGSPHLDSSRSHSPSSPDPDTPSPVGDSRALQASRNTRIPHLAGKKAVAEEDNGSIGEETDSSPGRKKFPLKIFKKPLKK
UniProt Q8TCT8: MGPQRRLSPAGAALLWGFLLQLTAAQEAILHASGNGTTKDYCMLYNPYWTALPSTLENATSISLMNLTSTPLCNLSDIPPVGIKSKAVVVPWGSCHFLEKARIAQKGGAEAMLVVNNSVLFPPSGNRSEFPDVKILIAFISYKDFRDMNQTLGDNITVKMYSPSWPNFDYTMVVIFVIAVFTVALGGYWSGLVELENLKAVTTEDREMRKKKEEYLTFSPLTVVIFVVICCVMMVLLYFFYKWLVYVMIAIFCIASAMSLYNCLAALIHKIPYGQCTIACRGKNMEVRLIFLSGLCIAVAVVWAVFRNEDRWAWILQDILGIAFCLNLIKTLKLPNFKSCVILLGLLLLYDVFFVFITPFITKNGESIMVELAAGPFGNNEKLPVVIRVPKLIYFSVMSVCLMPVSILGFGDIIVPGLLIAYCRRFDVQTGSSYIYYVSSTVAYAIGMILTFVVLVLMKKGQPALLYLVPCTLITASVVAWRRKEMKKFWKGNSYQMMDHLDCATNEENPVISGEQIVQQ
UniProt P51692: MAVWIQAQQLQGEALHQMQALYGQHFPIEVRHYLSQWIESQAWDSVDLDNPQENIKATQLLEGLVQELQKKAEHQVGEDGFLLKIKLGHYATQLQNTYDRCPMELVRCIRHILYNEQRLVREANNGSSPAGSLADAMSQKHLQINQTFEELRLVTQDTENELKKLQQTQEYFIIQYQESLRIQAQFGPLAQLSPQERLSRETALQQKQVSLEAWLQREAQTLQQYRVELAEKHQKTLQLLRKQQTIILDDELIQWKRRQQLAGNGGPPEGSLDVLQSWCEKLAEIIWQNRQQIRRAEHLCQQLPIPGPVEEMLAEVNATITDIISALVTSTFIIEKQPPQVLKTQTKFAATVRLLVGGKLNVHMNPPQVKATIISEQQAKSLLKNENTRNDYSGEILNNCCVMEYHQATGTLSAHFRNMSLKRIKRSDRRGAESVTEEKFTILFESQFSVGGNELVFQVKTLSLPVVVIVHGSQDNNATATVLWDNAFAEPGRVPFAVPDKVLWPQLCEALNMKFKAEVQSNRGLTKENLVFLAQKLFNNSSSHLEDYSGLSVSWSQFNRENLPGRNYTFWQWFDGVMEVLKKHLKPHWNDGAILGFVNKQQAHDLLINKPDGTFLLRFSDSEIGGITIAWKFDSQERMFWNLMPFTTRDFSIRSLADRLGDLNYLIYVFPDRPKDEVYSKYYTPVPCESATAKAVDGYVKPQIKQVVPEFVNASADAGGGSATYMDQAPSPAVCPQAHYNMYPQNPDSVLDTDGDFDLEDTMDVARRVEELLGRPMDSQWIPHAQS
UniProt Q08945, whole entry, looked up: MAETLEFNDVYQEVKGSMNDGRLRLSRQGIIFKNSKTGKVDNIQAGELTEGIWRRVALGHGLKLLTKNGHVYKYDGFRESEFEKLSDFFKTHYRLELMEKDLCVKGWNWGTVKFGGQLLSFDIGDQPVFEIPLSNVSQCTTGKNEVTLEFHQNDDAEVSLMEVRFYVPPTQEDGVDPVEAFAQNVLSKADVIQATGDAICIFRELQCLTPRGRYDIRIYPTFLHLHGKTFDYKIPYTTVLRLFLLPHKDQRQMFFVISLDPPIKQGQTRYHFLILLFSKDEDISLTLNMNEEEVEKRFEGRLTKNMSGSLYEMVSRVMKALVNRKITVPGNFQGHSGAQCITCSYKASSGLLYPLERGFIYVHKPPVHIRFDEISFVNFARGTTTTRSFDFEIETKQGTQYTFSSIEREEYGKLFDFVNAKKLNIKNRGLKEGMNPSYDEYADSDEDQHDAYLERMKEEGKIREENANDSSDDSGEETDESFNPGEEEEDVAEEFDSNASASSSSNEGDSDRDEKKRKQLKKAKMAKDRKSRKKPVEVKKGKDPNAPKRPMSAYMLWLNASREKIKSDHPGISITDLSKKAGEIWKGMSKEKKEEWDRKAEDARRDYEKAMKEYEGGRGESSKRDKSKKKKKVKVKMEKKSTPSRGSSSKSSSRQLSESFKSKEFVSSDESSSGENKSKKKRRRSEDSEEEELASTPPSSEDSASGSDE
UniProt Q92783: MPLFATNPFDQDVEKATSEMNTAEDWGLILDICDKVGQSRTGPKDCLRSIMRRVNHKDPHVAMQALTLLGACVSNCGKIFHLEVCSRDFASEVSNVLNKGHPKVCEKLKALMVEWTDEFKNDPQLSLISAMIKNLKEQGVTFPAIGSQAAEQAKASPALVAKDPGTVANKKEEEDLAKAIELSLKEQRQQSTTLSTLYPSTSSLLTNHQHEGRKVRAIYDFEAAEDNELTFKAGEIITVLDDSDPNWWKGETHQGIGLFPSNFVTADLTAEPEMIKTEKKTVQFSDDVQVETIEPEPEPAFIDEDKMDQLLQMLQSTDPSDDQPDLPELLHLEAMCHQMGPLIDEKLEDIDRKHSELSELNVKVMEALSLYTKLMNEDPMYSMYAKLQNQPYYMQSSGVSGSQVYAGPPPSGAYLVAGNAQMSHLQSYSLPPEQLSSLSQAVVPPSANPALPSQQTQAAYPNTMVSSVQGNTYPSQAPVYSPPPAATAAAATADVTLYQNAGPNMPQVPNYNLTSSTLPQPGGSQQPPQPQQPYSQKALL
UniProt Q14849, whole entry, looked up: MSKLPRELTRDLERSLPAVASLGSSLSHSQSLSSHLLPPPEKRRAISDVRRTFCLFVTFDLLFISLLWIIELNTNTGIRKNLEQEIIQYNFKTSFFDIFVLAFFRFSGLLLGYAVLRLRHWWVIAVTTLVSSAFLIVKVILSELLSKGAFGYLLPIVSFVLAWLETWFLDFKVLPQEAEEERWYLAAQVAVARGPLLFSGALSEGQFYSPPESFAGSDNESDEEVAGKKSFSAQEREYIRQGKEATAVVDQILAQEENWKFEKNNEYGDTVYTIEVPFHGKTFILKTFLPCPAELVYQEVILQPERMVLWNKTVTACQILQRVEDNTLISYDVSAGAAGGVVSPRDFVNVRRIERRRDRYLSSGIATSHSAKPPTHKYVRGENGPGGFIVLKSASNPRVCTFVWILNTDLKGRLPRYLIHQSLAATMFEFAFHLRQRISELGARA
UniProt Q9BUA3: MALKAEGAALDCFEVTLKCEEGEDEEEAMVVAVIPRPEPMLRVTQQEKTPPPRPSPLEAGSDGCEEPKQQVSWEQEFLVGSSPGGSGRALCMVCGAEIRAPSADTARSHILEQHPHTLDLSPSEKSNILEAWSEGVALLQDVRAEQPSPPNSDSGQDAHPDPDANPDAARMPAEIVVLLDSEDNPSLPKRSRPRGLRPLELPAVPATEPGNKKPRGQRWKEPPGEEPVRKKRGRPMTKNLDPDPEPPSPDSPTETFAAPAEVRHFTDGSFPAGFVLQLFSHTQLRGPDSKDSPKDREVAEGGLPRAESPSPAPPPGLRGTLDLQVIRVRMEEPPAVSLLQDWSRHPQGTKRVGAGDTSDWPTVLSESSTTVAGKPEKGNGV
UniProt Q16842: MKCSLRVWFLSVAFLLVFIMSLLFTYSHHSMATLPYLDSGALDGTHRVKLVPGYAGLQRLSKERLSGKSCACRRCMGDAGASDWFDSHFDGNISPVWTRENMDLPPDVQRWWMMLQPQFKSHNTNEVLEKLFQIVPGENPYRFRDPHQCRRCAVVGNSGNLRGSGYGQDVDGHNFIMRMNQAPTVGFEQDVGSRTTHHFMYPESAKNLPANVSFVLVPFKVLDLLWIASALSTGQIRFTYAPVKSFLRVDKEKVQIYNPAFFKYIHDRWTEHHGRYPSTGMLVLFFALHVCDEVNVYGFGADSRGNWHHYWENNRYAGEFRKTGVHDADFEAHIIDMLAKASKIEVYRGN
UniProt P08240: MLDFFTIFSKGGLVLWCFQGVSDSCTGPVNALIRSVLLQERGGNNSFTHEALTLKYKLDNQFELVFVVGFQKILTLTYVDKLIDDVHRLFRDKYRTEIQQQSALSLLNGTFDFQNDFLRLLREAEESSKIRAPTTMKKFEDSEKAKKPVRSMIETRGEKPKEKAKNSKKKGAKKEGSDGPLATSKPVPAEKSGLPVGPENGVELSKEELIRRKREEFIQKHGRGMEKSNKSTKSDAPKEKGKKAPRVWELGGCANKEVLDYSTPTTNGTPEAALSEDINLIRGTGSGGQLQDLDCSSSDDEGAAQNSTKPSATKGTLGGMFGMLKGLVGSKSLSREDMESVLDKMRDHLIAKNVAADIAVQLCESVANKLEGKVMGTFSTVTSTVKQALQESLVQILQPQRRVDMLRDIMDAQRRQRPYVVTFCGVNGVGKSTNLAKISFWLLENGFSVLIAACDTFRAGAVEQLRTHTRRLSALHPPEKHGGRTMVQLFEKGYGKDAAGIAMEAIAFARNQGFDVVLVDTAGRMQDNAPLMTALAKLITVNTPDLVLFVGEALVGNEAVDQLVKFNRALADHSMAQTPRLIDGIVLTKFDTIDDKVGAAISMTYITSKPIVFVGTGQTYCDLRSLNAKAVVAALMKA
UniProt P19623: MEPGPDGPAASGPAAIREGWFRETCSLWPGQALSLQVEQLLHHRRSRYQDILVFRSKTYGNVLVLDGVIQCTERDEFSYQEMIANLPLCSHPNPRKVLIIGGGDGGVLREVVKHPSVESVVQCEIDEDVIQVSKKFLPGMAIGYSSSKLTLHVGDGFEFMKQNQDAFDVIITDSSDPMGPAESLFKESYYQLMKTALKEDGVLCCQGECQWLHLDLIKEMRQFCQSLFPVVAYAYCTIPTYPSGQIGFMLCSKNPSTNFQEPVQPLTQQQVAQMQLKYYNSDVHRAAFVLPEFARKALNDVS
UniProt Q8WXA9: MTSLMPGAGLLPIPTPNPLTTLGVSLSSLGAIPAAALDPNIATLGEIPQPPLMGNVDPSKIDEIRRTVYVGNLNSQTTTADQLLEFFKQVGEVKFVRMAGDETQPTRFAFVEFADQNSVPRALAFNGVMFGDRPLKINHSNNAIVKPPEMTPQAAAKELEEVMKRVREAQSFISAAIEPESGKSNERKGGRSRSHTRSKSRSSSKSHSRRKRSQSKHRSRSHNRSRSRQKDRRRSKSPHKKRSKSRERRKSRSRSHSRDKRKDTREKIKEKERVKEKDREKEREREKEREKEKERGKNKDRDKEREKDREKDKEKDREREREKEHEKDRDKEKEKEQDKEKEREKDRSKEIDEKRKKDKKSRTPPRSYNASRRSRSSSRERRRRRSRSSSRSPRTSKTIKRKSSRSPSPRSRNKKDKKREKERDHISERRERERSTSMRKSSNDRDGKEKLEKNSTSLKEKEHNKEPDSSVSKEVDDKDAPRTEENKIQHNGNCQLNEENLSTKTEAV
UniProt P61011: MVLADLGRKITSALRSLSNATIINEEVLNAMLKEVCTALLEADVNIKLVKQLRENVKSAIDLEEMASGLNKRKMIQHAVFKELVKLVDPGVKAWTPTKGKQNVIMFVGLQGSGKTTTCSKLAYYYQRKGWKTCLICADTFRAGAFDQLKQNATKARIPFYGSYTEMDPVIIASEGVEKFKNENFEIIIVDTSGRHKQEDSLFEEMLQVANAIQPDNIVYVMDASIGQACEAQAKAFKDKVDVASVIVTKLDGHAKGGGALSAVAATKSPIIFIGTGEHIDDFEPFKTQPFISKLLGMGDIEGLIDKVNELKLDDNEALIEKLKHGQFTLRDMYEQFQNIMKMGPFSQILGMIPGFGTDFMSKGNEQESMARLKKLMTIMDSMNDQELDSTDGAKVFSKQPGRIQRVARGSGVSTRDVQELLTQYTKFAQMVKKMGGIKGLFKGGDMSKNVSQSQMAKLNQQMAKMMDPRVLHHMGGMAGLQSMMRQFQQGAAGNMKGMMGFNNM

Compound: CCCS(=O)(=O)Nc1ccc(F)c(C(=O)c2c[nH]c3ncc(Cl)cc23)c1F
Assay: log2 fold change, soluble protein after heating vs DMSO (PISA); higher = thermal stabilisation; K562 cells, 10 uM, 30 min; active = over 0.2 and 3.5 SD of the protein, either way, in both replicates (recomputed)
Summary of the method: (§1)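 Values are thermal stability changes relative to control samples and are taken from duplicates. They are stated as log2 fold changes. Before quantification by TMTpro 16plex LC-MS/MS with equalised channel sums, K562 cells at 2×10^6 cells/mL were treated with 10 μM compound for 30 min, heated in aliquots for 3 min across 48°C-58°C, pooled, extracted in PBS with 0.5% NP-40 at 4°C, and centrifuged at 21,000xg for 90 min to give the soluble supernatant.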

log2 fold change, inactive:
SPPL2B (UniProt Q8TCT7) -0.018
SRSF3 (UniProt P84103) -0.173
SRGAP2 (UniProt O75044) -0.015
SRGN (UniProt P10124) 0.049
SSR1 (UniProt P43307) 0.005
SPART (UniProt Q8N0X7) 0.088
SRSF11 (UniProt Q05519) 0.087
STIM1 (UniProt Q13586) 0.034
SRSF7 (UniProt Q16629) -0.088
STK25 (UniProt O00506) 0.011
SPHK1 isoform 2 (UniProt Q9NYA1) 0.074
SPG7 (UniProt Q9UQ90) -0.021
SPTA1 (UniProt P02549) 0.07
SPPL2A (UniProt Q8TCT8) 0
STAT1 (UniProt P42224) 0.13
SRP68 (UniProt Q9UHB9) 0.091
SSNA1 (UniProt O43805) -0.003
STAT5B (UniProt P51692) 0.08
STAU1 (UniProt O95793) -0.021
SPATA5 (UniProt Q8NB90) -0.019
SSRP1 (UniProt Q08945) 0.062
ST6GAL1 (UniProt P15907) -0.069
SSX2 (UniProt Q16385) 0.035
STAM (UniProt Q92783) 0.034
SQSTM1 (UniProt Q13501) 0.047
STK11 (UniProt Q15831) -0.007
STARD3 (UniProt Q14849) -0.059
SPINDOC (UniProt Q9BUA3) 0.11
ST3GAL2 (UniProt Q16842) -0.013
SPCS1, A0A5F9YFS9 0.157
SRPRA (UniProt P08240) 0.069
SPTBN2 (UniProt O15020) 0.034
SRSF2 (UniProt Q01130) -0.025
SRM (UniProt P19623) 0.006
SREK1 isoform 2 (UniProt Q8WXA9) 0.096
SRP72 (UniProt O76094) 0.09
SRP54 (UniProt P61011) 0.042
ST7 (UniProt Q9NRC1) 0.095

Compound: CCCc1cc(C)[nH]c(=O)c1CNC(=O)c1cc(-c2ccnc(N3CCN(C)CC3)c2)cc2c1cnn2C(C)C
Assay: as above
Summary of the method: as §1

log2 fold change, inactive:
SPPL2B (UniProt Q8TCT7) 0.021
SRSF3 (UniProt P84103) 0.047
SRGAP2 (UniProt O75044) 0.085
SRGN (UniProt P10124) 0.047
SSR1 (UniProt P43307) 0.006
SPART (UniProt Q8N0X7) -0.025
SRSF11 (UniProt Q05519) 0.053
STIM1 (UniProt Q13586) -0.015
SRSF7 (UniProt Q16629) 0.114
STK25 (UniProt O00506) -0.052
SPHK1 isoform 2 (UniProt Q9NYA1) -0.089
SPG7 (UniProt Q9UQ90) -0.021
SPTA1 (UniProt P02549) 0.102
SPPL2A (UniProt Q8TCT8) 0.084
STAT1 (UniProt P42224) 0.198
SRP68 (UniProt Q9UHB9) 0.064
SSNA1 (UniProt O43805) -0.003
STAT5B (UniProt P51692) 0.101
STAU1 (UniProt O95793) 0.162
SPATA5 (UniProt Q8NB90) -0.013
SSRP1 (UniProt Q08945) 0.015
ST6GAL1 (UniProt P15907) 0.047
SSX2 (UniProt Q16385) -0.016
STAM (UniProt Q92783) -0.051
SQSTM1 (UniProt Q13501) 0.103
STK11 (UniProt Q15831) -0.005
STARD3 (UniProt Q14849) 0
SPINDOC (UniProt Q9BUA3) -0.013
ST3GAL2 (UniProt Q16842) 0.212
SPCS1, A0A5F9YFS9 -0.004
SRPRA (UniProt P08240) 0.001
SPTBN2 (UniProt O15020) 0.078
SRSF2 (UniProt Q01130) -0.023
SRM (UniProt P19623) 0.005
SREK1 isoform 2 (UniProt Q8WXA9) -0.069
SRP72 (UniProt O76094) 0.046
SRP54 (UniProt P61011) 0.017
ST7 (UniProt Q9NRC1) -0.039
